Results deposited as PubChem BioAssay AID652259 (Drosophila RNAi Screening Center, 2013).

- Test: 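Genome-wide hunt for genes that control Wingless pathway activity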 (primary screen)
- Cell system: Drosophila clone 8 imaginal disc epithelial cells
- Reagent: long dsRNA against Drosophila genes
- Challenge: pathway stimulated by co-transfected Wingless expression plasmid
- Measurement: 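Firefly luciferase from a tcf-site Wingless reporter, measured alongside co-transfected Renilla luciferase that tracks transfection; pathway stimulated by a Wingless plasmid; the firefly-to-Renilla ratio is not deposited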
- Direction: firefly reporter light: higher = more Wg reporter light, before normalisation; Renilla control light: higher = more transfected or surviving cells
- Hit rule: 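a knock-down is a candidate when at least two out of four statistical tests show it departing from its plate mean; one test alone signals a weak candidate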
- Meaning of the calls: active = candidate regulator (raises or lowers reporter); inactive = not a candidate
The deposit covers about 22,000 reagents; below is an unselected part of those that have a named target and a result. Over the whole deposit, 233 (1.1%) got an active call. 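Light values are raw, unnormalised plate reads; the ratio scores behind the reporter calls were not deposited.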 Unmarked entries are inactive. Not stated in the record: the amount of reagent, the time to read-out, the dose of the treatment.

CG30154 [DRSC05889] → firefly reporter light, replicate 1: 22528; Renilla control light, replicate 1: 12372
Mef2 (Myocyte enhancer factor 2) [DRSC07468] → firefly reporter light, replicate 1: 11308; Renilla control light, replicate 1: 2208
disp (dispatched) [DRSC12376] → firefly reporter light, replicate 1: 15616; Renilla control light, replicate 1: 3120
CG12620 [DRSC02177] → firefly reporter light, replicate 1: 2118; firefly reporter light, replicate 2: 6865; Renilla control light, replicate 1: 912; Renilla control light, replicate 2: 3707
CG3511 [DRSC04382] → firefly reporter light, replicate 1: 12281; Renilla control light, replicate 1: 3320
Gp150 [DRSC04618] → firefly reporter light, replicate 1: 3578; firefly reporter light, replicate 2: 11593; Renilla control light, replicate 1: 931; Renilla control light, replicate 2: 5939
CG14480 [DRSC06452] → firefly reporter light, replicate 1: 8489; Renilla control light, replicate 1: 3061
mib1 (mind bomb 1) [DRSC10550] → firefly reporter light, replicate 1: 10836; Renilla control light, replicate 1: 3659
CG11294 [DRSC17777] → firefly reporter light, replicate 1: 25010; Renilla control light, replicate 1: 6582
CG1529 [DRSC20515] → firefly reporter light, replicate 1: 18880; Renilla control light, replicate 1: 8545
TrxT (Thioredoxin T) [DRSC22182] → firefly reporter light, replicate 1: 7.84e5; firefly reporter light, replicate 2: 6.98e5; Renilla control light, replicate 1: 3.87e5; Renilla control light, replicate 2: 3.63e5
CG31848 [DRSC01309] → firefly reporter light, replicate 1: 15413; Renilla control light, replicate 1: 8861
CG42258 [DRSC19741] → firefly reporter light, replicate 1: 19376; Renilla control light, replicate 1: 9910
CG42258 [DRSC19783] → firefly reporter light, replicate 1: 22627; Renilla control light, replicate 1: 7888
CG33477 [DRSC22934] → firefly reporter light, replicate 1: 4.87e5; firefly reporter light, replicate 2: 7.19e5; Renilla control light, replicate 1: 2.32e5; Renilla control light, replicate 2: 90002
CG30323 [DRSC07656] → firefly reporter light, replicate 1: 4689; Renilla control light, replicate 1: 1572
Marcal1 [DRSC02718] → reporter change call, replicate 1: Wg reporter activity lowered (active); firefly reporter light, replicate 1: 1404; firefly reporter light, replicate 2: 3949; Renilla control light, replicate 1: 901; Renilla control light, replicate 2: 1712
scrib (scribble) [DRSC13774] → firefly reporter light, replicate 1: 4083; Renilla control light, replicate 1: 1808
scrib (scribble) [DRSC13775] → firefly reporter light, replicate 1: 5082; Renilla control light, replicate 1: 1298
scrib (scribble) [DRSC15809] → firefly reporter light, replicate 1: 2611; firefly reporter light, replicate 2: 3285; Renilla control light, replicate 1: 1130; Renilla control light, replicate 2: 1531
scrib (scribble) [DRSC17051] → firefly reporter light, replicate 1: 4722; Renilla control light, replicate 1: 2283
Adk1 (Adenosine kinase 1) [DRSC15514] → firefly reporter light, replicate 1: 13654; Renilla control light, replicate 1: 4663
CG34436 [DRSC15164] → firefly reporter light, replicate 1: 7941; Renilla control light, replicate 1: 3043
Idgf6 (Imaginal disc growth factor 6) [DRSC07360] → firefly reporter light, replicate 1: 15020; Renilla control light, replicate 1: 4171
Sec61alpha (Sec61 alpha subunit) [DRSC03256] → firefly reporter light, replicate 1: 17698; Renilla control light, replicate 1: 4977

An excerpt from above, reduced to “firefly reporter light, replicate 1”.
CG14480 [DRSC06452]: 8489
mib1 (mind bomb 1) [DRSC10550]: 10836
CG11294 [DRSC17777]: 25010
